Results: the supplement of paper PMC8728848
This is one part of the list.

What was measured:
Assay in all cases: glycan array binding signal (z-score within array); higher = stronger binding
Settings in all cases: glycan notation: IUPAC condensed, linker removed
[1] = target: Gal3S(b1-3)[Fuc(a1-4)]GlcNAc
Outline: (§1)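 Columns mapping to the same glycan were averaged after glycan names were converted to IUPAC-condensed notation. The data come from 3228 arrays in the Consortium for Functional Glycomics database, limited to those with an available protein sequence. Binding is reported as a within-array Z-score averaged across arrays of one protein sequence and across linkers.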

[2] = target: Gal3S(b1-4)Glc
Outline: as §1

[3] = target: Gal3S(b1-4)Glc6S
Outline: as §1

[4] = target: Gal3S(b1-4)GlcNAc
Outline: as §1

[5] = target: Gal3S(b1-4)[Fuc(a1-3)]Glc6S
Outline: as §1

[6] = target: Gal3S(b1-4)[Fuc(a1-3)]GlcNAc
Outline: as §1

[7] = target: Gal3S(b1-4)[Fuc(a1-3)]GlcNAc6S
Outline: as §1

[8] = target: Gal3S4S(b1-4)GlcNAc
Outline: as §1

[9] = target: Gal3S6S(b1-4)GlcNAc
Outline: as §1

[10] = target: Gal3S6S(b1-4)GlcNAc6S
Outline: as §1

[11] = target: Gal4S(b1-4)GlcNAc
Outline: as §1

[12] = target: Gal4S6S(b1-4)GlcNAc
Outline: as §1

[13] = target: Gal6P(b1-4)GlcNAc
Outline: as §1

[14] = target: Gal6S(b1-3)GlcNAc
Outline: as §1

[15] = target: Gal6S(b1-3)GlcNAc6S
Outline: as §1

[16] = target: Gal6S(b1-4)Glc
Outline: as §1

[17] = target: Gal6S(b1-4)Glc6S
Outline: as §1

[18] = target: Gal6S(b1-4)GlcNAc
Outline: as §1

[19] = target: Gal6S(b1-4)GlcNAc6S
Outline: as §1

[20] = target: GalNAc(a1-3)Gal
Outline: as §1

[21] = target: GalNAc(a1-3)GalNAc
Outline: as §1

[22] = target: GalNAc(a1-3)GalNAc(b1-3)Gal(a1-4)Gal(b1-4)Glc
Outline: as §1

[23] = target: GalNAc(a1-3)GalNAc(b1-3)Gal(a1-4)Gal(b1-4)GlcNAc
Outline: as §1

[24] = target: GalNAc(b1-3)Gal
Outline: as §1

[25] = target: GalNAc(b1-3)Gal(a1-4)Gal(b1-4)GlcNAc
Outline: as §1

[26] = target: GalNAc(b1-3)Gal(a1-4)Gal(b1-4)GlcNAc(b1-3)Gal(b1-4)Glc
Outline: as §1

[27] = target: GalNAc(b1-3)Gal(a1-6)Gal(b1-4)Glc
Outline: as §1

[28] = target: GalNAc(b1-3)GalNAc
Outline: as §1

[29] = target: GalNAc(b1-3)GlcNAc
Outline: as §1

[30] = target: GalNAc(b1-4)Gal(b1-4)Glc
Outline: as §1

[31] = target: GalNAc(b1-4)GlcNAc
Outline: as §1

[32] = target: GalNAc(b1-4)GlcNAc(b1-2)Man
Outline: as §1

[33] = target: GalNAc(b1-4)GlcNAc(b1-2)Man(a1-3)[GalNAc(b1-4)GlcNAc(b1-2)Man(a1-6)]Man(b1-4)GlcNAc(b1-4)GlcNAc
Outline: as §1

[34] = target: GalNAc(b1-4)GlcNAc(b1-3)GalNAc(b1-4)GlcNAc
Outline: as §1

[35] = target: GalNAc(b1-4)GlcNAc6S
Outline: as §1

[36] = target: GalNAc(b1-6)GalNAc
Outline: as §1

[37] = target: GalNAc3S(b1-4)GlcNAc
Outline: as §1

[38] = target: GalNAc3S(b1-4)GlcNAc3S
Outline: as §1

[39] = target: GalNAc3S(b1-4)[Fuc(a1-3)]GlcNAc
Outline: as §1

[40] = target: GalNAc4S6S(b1-4)GlcNAc
Outline: as §1

[41] = target: GalNAc6S(b1-4)GlcNAc
Outline: as §1

[42] = target: Glc(a1-4)Glc
Outline: as §1

[43] = target: Glc(a1-4)Glc(a1-4)Glc(a1-4)Glc
Outline: as §1

[44] = target: Glc(a1-6)Glc(a1-6)Glc
Outline: as §1

[45] = target: Glc(a1-6)Glc(a1-6)Glc(a1-6)Glc
Outline: as §1

B1: OS9-MRH (Homo sapiens), Q13438 (protein)
chain: IPELLSPMRDAPCLLKTKDWWTYEFCYGRHIQQYHMEDSEIKGEVLYLGYYQSAFDWDDETAKASKQHRLKRYHSQTYGNGSKCDLNGRPREAEVRFLCDEGAGISGDYIDRVDEPLSCSYVLTIRTPRLCPHPLLRPPPSAAPQAI
[1]
  glycan array binding signal (z-score): -0.283
[2]
  glycan array binding signal (z-score): 1.13
[3]
  glycan array binding signal (z-score): 0.391
[4]
  glycan array binding signal (z-score): -0.163
[5]
  glycan array binding signal (z-score): 1.02
[6]
  glycan array binding signal (z-score): -0.296
[7]
  glycan array binding signal (z-score): 1.2
[8]
  glycan array binding signal (z-score): -1.28
[9]
  glycan array binding signal (z-score): -0.673
[10]
  glycan array binding signal (z-score): 0.711
[11]
  glycan array binding signal (z-score): -0.412
[12]
  glycan array binding signal (z-score): 1.93
[13]
  glycan array binding signal (z-score): -0.224
[14]
  glycan array binding signal (z-score): -1.94
[15]
  glycan array binding signal (z-score): -0.649
[16]
  glycan array binding signal (z-score): -0.643
[17]
  glycan array binding signal (z-score): -1.06
[18]
  glycan array binding signal (z-score): -0.312
[19]
  glycan array binding signal (z-score): -1.06
[20]
  glycan array binding signal (z-score): 2.81
[21]
  glycan array binding signal (z-score): 3.57
[22]
  glycan array binding signal (z-score): 0.581
[23]
  glycan array binding signal (z-score): -0.426
[24]
  glycan array binding signal (z-score): 1.16
[25]
  glycan array binding signal (z-score): 0.116
[26]
  glycan array binding signal (z-score): -1.33
[27]
  glycan array binding signal (z-score): -0.567
[28]
  glycan array binding signal (z-score): -1.33
[29]
  glycan array binding signal (z-score): -0.123
[30]
  glycan array binding signal (z-score): -0.025
[31]
  glycan array binding signal (z-score): 0.088
[32]
  glycan array binding signal (z-score): -0.402
[33]
  glycan array binding signal (z-score): -0.566
[34]
  glycan array binding signal (z-score): -0.422
[35]
  glycan array binding signal (z-score): 0.123
[36]
  glycan array binding signal (z-score): 1.14
[37]
  glycan array binding signal (z-score): -0.21
[38]
  glycan array binding signal (z-score): 0.806
[39]
  glycan array binding signal (z-score): -0.524
[40]
  glycan array binding signal (z-score): 0.753
[41]
  glycan array binding signal (z-score): 0.097
[42]
  glycan array binding signal (z-score): -0.572
[43]
  glycan array binding signal (z-score): 0.234
[44]
  glycan array binding signal (z-score): -0.333
[45]
  glycan array binding signal (z-score): -0.269
